Among the data in PMC7819943, “Rice protein-binding microarrays: a tool to detect cis-acting elements near promoter regions in rice” are binding signal values, retold here.

By UniProt entry, the sequences of proteins in these tests, tags left out.
UniProt Q0JBA9, entry or part of it: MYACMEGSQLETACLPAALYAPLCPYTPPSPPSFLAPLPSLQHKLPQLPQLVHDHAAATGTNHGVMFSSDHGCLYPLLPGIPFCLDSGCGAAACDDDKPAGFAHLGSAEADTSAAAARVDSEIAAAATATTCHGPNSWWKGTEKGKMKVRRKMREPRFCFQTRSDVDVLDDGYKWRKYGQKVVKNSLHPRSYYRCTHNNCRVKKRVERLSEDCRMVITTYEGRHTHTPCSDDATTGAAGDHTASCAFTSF

Some of the results follow.

The target of this test is OsWRKY34 (Oryza sativa, UniProt Q0JBA9 1-250). Nature of the test: protein-binding microarray (RPBM); PBS, 2% BSA, 51.3 ng/ul salmon testes DNA, 50 uM zinc acetate, 200 nM TF, 25 C, 1 h; high values mean tight binding. As to conditions: protein: recombinant; tags: N-terminal polyhistidine and DsRed monomer fusion (pET32a); label: CyDye5-dUTP incorporated in the synthesized complementary strand; 3' TTTTT single-stranded linker to array surface; dsDNA, one strand shown. The essentials:
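Binding signal here means per-feature fluorescence intensity in arbitrary units. The values were read on an Axon 4000B scanner after a custom Agilent array, double-stranded by primer extension with Cy5-dUTP, was incubated with 200 nM protein at 25 °C for 1 h in PBS with 2% BSA, salmon testes DNA and 50 µM zinc acetate, then washed. The proteins were transcription factors with an N-terminal polyhistidine tag and DsRed, expressed in E. coli BL21-CodonPlus and purified on Ni–NTA.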
“CATCCTCTGGTATCAATATAGTACTGGCCACATTTTTCCACGGAGTCACCTAGTGCAG”: the binding signal is 10700 fluorescence intensity (a.u.).

“ACGCAGCATGCCACGCCGATCTCCTCGCGCCACGTCACCCCGGAGTCACCTAGTGCAG”: the binding signal was 8080 fluorescence intensity (a.u.).

Take “GCGCTTCCGCCGCCGCCGCCACCACCACCGCCATCAACGCCGGAGTCACCTAGTGCAG”: the binding signal is 8940 fluorescence intensity (a.u.). Consider “AGACGATCTCATGACATTAATTTGACCATCATTAGGCCTACGGAGTCACCTAGTGCAG”, for which the binding signal was 8230 fluorescence intensity (a.u.). As for “GGTGGTCTCTCTCTCTCTCTCTTCTCTCGCCTCACTTCGCCGGAGTCACCTAGTGCAG”, the figure is 8490 fluorescence intensity (a.u.); as for “AAAATTGAACCCTGTATATATATCATTTCTTATGTTGTATCGGAGTCACCTAGTGCAG”, 9490 fluorescence intensity (a.u.); as for “TTTCCGACATGGCATGTACGCGTCATCGTCGCCGCGCGTTCGGAGTCACCTAGTGCAG”, 9370 fluorescence intensity (a.u.). For “ATCCATCCCACACTGCCACACAACGCCATCTCTCTCTCTCCGGAGTCACCTAGTGCAG”, the binding signal was 8560 fluorescence intensity (a.u.). As for “GGATCTGGCCACCCCGCCGCCATCGCCTGCCGTTTTATTTCGGAGTCACCTAGTGCAG”, the figure is 10700 fluorescence intensity (a.u.); as for “TCCGTCTCGCCTCGTCACCTCACCTCGGCATCACCCAGGTCGGAGTCACCTAGTGCAG”, 9220 fluorescence intensity (a.u.). “GCTTTTATTCTACTTGTACAGTATACTACCTTACTTACCTCGGAGTCACCTAGTGCAG”: the binding signal is 12200 fluorescence intensity (a.u.). The result for “GCTCAAACTCCCGCAACGTTATCATCTCCACTCTTCCACCCGGAGTCACCTAGTGCAG” reads 15400 fluorescence intensity (a.u.); that for “ACACCGTTGACTTTTTAGCACATGTTGGACTGTTCGTCTTCGGAGTCACCTAGTGCAG”, 39800 fluorescence intensity (a.u.).

With “GCTAGAAAAGTACGACAGCGACAAGCCAACAACAACAACTCGGAGTCACCTAGTGCAG”, the binding signal was 8080 fluorescence intensity (a.u.). In the case of “GTATGCCATTCGCCCAAGATGCTTTTGCTTCGCATGGACCCGGAGTCACCTAGTGCAG”, the binding signal was 8540 fluorescence intensity (a.u.). “TTCTGGTTTGGCATTTTGGCCCGTATAGAAAGAATTTGCCCGGAGTCACCTAGTGCAG”: the binding signal is 8310 fluorescence intensity (a.u.).

For “ATGTTTGGACTCCATAAGTTTCACTTAAAGTTTTTAGCATCGGAGTCACCTAGTGCAG”, the binding signal was 8150 fluorescence intensity (a.u.). In the case of “GGAAAATTGGATCTATGTCACTCCGTCGCGTTTTTCATCCCGGAGTCACCTAGTGCAG”, the binding signal was 10100 fluorescence intensity (a.u.). Consider “GTCTTGTGTCAAGTGCCAGTCACTCAGTTCATCCACAGCACGGAGTCACCTAGTGCAG”, for which the binding signal is 8080 fluorescence intensity (a.u.). Regarding “GAACGGTCAAACATGTGCTAAAAAGTCAACGGTGTCAAACCGGAGTCACCTAGTGCAG”, the binding signal is 10100 fluorescence intensity (a.u.). The result for “CGGCGGGTGGGGCGGTGGCGGTGAGGGATGCGGTGGTGGCCGGAGTCACCTAGTGCAG” reads 10700 fluorescence intensity (a.u.). The result for “TTCCTTAGCCAATGTGTTCAGATTCCTCACTTCTTTCACTCGGAGTCACCTAGTGCAG” reads 12300 fluorescence intensity (a.u.); that for “ACACATACACACACTCGTCGTCTCACTCCCACAGTGATAACGGAGTCACCTAGTGCAG”, 8720 fluorescence intensity (a.u.). As for “TCTTTTGTCACATCTTTATAATATTGCCCATGGCACATACCGGAGTCACCTAGTGCAG”, the figure is 8490 fluorescence intensity (a.u.).

Take “GCATCTCCTCTCCTCCATCCTTCCTCTCGGGGTTGGCCTCCGGAGTCACCTAGTGCAG”: the binding signal is 10500 fluorescence intensity (a.u.). The result for “GCGTAGGGTGGTGTTTGGTACCGCGAGACCGTGCGTGAGTCGGAGTCACCTAGTGCAG” reads 9380 fluorescence intensity (a.u.). As to “AACATCAGACTTACATGGTTCTCTTCTGTGGTGTTGCATGCGGAGTCACCTAGTGCAG”, the binding signal was 9540 fluorescence intensity (a.u.). The result for “AGTACCTGCAACTTTCATGTTATGCAAATGACCTAGTTATCGGAGTCACCTAGTGCAG” reads 8810 fluorescence intensity (a.u.); that for “TTGTTGCTATTTATGCCCATTAGCTTCTGGTAGACAAGGGCGGAGTCACCTAGTGCAG”, 8870 fluorescence intensity (a.u.). As for “ATCCACTGTTTGTGAATTGTCAATTTGTCATGCGTTGTACCGGAGTCACCTAGTGCAG”, the figure is 9440 fluorescence intensity (a.u.); as for “AATGAAAATCGGGGCGTTACAATACCCATCGGGTTCTCTTCGGAGTCACCTAGTGCAG”, 8560 fluorescence intensity (a.u.). Turning to “TCCTTGTATTCCTGTCATCCTGTGTGCCACTTGATAGAAACGGAGTCACCTAGTGCAG”, the binding signal was 8900 fluorescence intensity (a.u.). For “AACCTCCATCTCCCGCCCAGTGCCGCCGCGCCACGTCACCCGGAGTCACCTAGTGCAG”, the binding signal was 12700 fluorescence intensity (a.u.).

For the sequence “GGCTTTGCAATTGTCGCCTGTTGTTTGCAGATGCGCGCTCCGGAGTCACCTAGTGCAG”, the binding signal is 10400 fluorescence intensity (a.u.). Consider “GGTTGGTGACGCGTTGTTGTTTGTTCCTCAAATTTGTTCTCGGAGTCACCTAGTGCAG”, for which the binding signal is 16500 fluorescence intensity (a.u.). The result for “CCCGTGCCCGTCGTGCCCGACTGCCATCCCTATTCGAGACCGGAGTCACCTAGTGCAG” reads 9800 fluorescence intensity (a.u.); that for “AAAATTGGAATCCGTCTCATCTTCGCTTGCTCTCTTCTCTCGGAGTCACCTAGTGCAG”, 8130 fluorescence intensity (a.u.); that for “ATCCATCCGTTTCATAATGTAAGACTTTCTAGCATTGTCCCGGAGTCACCTAGTGCAG”, 8250 fluorescence intensity (a.u.). As for “CCGTCGCACCGTCTCCACTCGTCCCGGATCAACAAACCGCCGGAGTCACCTAGTGCAG”, the figure is 10500 fluorescence intensity (a.u.). The result for “CAACTAATTTCAAGCACCATCCAGACGTATATTTTTTTTCCGGAGTCACCTAGTGCAG” reads 10000 fluorescence intensity (a.u.); that for “GGTGCTTTGGTTTACTACCTTCATTTTTTAATATATGACACGGAGTCACCTAGTGCAG”, 9010 fluorescence intensity (a.u.); that for “CCTCATCCTCTCGCTGATCCTCTCCCTCCTCACCTGCAAACGGAGTCACCTAGTGCAG”, 8350 fluorescence intensity (a.u.).
